{"source": "PubChem BioAssay AID1053208 (Peter MacCallum Cancer Centre, 2014)", "screen": "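Genes whose silencing cuts survival of bone tumour cells only with doxorubicin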 (primary screen)", "cells": "mouse osteosarcoma cells, early-passage culture from an engineered mouse model of fibroblastic bone tumour", "reagent": "siRNA pool against mouse genes, 40 nM", "duration": "about 120 h (48 h before drug, then 72 h with drug)", "treatment": "doxorubicin 100 nM for 72 h, roughly 30-40% inhibitory dose", "read-out": "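Luminescent ATP signal taken as viability with or without 100 nM doxorubicin for 72 h; mean of two wells set against non-targeting siRNA and turned into robust z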", "scale": "viability z-score with doxorubicin: higher = more viable cells under doxorubicin; viability z-score without drug: higher = more viable cells with knock-down alone", "active means": "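a pool counts as active when its viability z-score with doxorubicin is -2 or below and its z-score without drug lies between -2 and 2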", "note": "The whole screen tested about 17,000 reagents; below is a part drawn at random. 788 of all reagents (4.7%) were called active. 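Calls rest on z-score classes alone; an extra cut-off of viability at most 70% of control was not applied to them.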 Unmarked entries are inactive. Reagents against one gene are numbered here. Not all columns of the deposit are shown."}
{"Gene": "Lrrc75b", "reagent no.": 1, "combined z-score class": "no change with or without drug", "viability z-score with doxorubicin": 0.45, "viability z-score without drug": 0.34}
{"Gene": "Hycc2", "reagent no.": 1, "combined z-score class": "no change with or without drug", "viability z-score with doxorubicin": -0.67, "viability z-score without drug": -0.51}
{"Gene": "Ap1s1", "reagent no.": 1, "combined z-score class": "high cell count without drug only", "viability z-score with doxorubicin": 1.46, "viability z-score without drug": 3.88}
{"Gene": "Col4a5", "reagent no.": 1, "combined z-score class": "no change with or without drug", "viability z-score with doxorubicin": 1.57, "viability z-score without drug": 1.69}
{"Gene": "Aatf", "reagent no.": 1, "combined z-score class": "no change with or without drug", "viability z-score with doxorubicin": -1.24, "viability z-score without drug": -0.17}

Already shown: entries from further up.
{"Gene": "Col4a5", "reagent no.": 1, "combined z-score class": "no change with or without drug", "viability z-score with doxorubicin": 1.57, "viability z-score without drug": 1.69}
{"Gene": "Aatf", "reagent no.": 1, "combined z-score class": "no change with or without drug", "viability z-score with doxorubicin": -1.24, "viability z-score without drug": -0.17}

The results go on:
{"Gene": "Spire2", "reagent no.": 1, "combined z-score class": "high cell count with doxorubicin only", "viability z-score with doxorubicin": 2.02, "viability z-score without drug": 0.84}
{"Gene": "Zfp672", "reagent no.": 1, "combined z-score class": "no change with or without drug", "viability z-score with doxorubicin": -1.8, "viability z-score without drug": 1.69}
{"Gene": "Zfp672", "reagent no.": 2, "combined z-score class": "no change with or without drug", "viability z-score with doxorubicin": -1.91, "viability z-score without drug": 0.84}
{"Gene": "Trpc3", "reagent no.": 1, "combined z-score class": "no change with or without drug", "viability z-score with doxorubicin": -0.45, "viability z-score without drug": 0}
{"Gene": "Gas1", "reagent no.": 1, "combined z-score class": "no change with or without drug", "viability z-score with doxorubicin": 1.8, "viability z-score without drug": 0.17}
{"Gene": "Pelp1", "reagent no.": 1, "combined z-score class": "no change with or without drug", "viability z-score with doxorubicin": 0, "viability z-score without drug": -0.84}
{"Gene": "9230110G02RIK", "reagent no.": 1, "combined z-score class": "high cell count with doxorubicin only", "viability z-score with doxorubicin": 2.02, "viability z-score without drug": 0.34}
